Source: article PMC11145868, “Protein target similarity is positive predictor of in vitro antipathogenic activity: a drug repurposing strategy for Plasmodium falciparum” (Journal of Cheminformatics, 2024)

Assays:
P. falciparum Dd2-HLH = assay: microbe, parasite or virus in culture; type: cell-based; conditions: Plasmodium falciparum, DD2, 48 h, read-out: Blood stage 48h EC50
[1] = tested on: P. berghei-luciferase sporozoites; assay: microbe, parasite or virus in culture; type: cell-based; conditions: Plasmodium berghei, HepG2, 48 h, read-out: Liver stage 48h EC50

## COc1ccc(CCN2CCC(Nc3nc4ccccc4n3Cc3ccc(F)cc3)CC2)cc1 [Astemizole]
P. falciparum Dd2-HLH
  EC50: 342 nM
[1]
  EC50: 50 nM
